Structures are written as SMILES. Values joined by “and” are separate entries in the source; they are usually repeats but may differ in a detail not shown here. Identical values can stand only once. This is one part of the list. This data set is noisy: repeats of one test often differ as much as different tests do.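 HEK293T cells were given each compound shortly before transfection with a reporter in which red mCherry is followed by the SARS-CoV-2 frameshift element and then GFP in the −1 frame, so GFP appears only after frameshifting.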

The first test relates to SARS-CoV-2 -1 PRF reporter mCherry-FSE-GFP(-1). Nature of the test: mCherry (red) intensity as percent of control; higher = higher upstream reporter expression. Particulars: 10 µM; 24 h; HEK293T.
Take `CC(Cc1ccccc1)N(C)C(=O)Cn1nc(-c2ccccc2)ccc1=O` (stereo not given) [isamfazone]: the mCherry is 83%.
For the compound `C#CCN(C)CCCOc1ccc(Cl)cc1Cl`, the mCherry was determined as 88.8%.
`Cc1cc2c(cc1CC(=O)c1sccc1S(=O)(=O)Nc1onc(C)c1Cl)OCO2` [Thelin] came in with a mCherry of 135%.
Same read-out and setting: the result for `CCN(CC)CC(=O)OCC(=O)[C@@]1(O)CC[C@H]2[C@@H]3CCC4=CC(=O)C=C[C@]4(C)[C@H]3[C@@H](O)C[C@@]21C` [prednisolamate] reads 60.1%; that for `CCOC(=O)O[C@]1(C(=O)COC(=O)CC)CC[C@H]2[C@@H]3CCC4=CC(=O)C=C[C@]4(C)[C@H]3[C@@H](O)C[C@@]21C`, 95.2%; that for `CN1CCCC(n2nc(Cc3ccc(Cl)cc3)c3ccccc3c2=O)CC1` (stereo not given), 114%.
With `CC(=O)Oc1ccccc1C(=O)O` [Acetylsalicylic Acid], the mCherry was determined as 59.3%.
Turning to `Cc1cccc(C)c1OCC(C)N` (stereo not given), the mCherry stood at 118%.
On the same count and under the same terms, the result for `CC1(C)OC[C@@H]2O[C@@]3(C(=O)O)OC(C)(C)O[C@H]3[C@@H]2O1` [diprogulic acid] reads 105%.
In turn, `Cc1onc(-c2ccccc2Cl)c1C(=O)N[C@@H]1C(=O)N2[C@@H]1SC(C)(C)[C@@H]2C(=O)O` showed a mCherry of 104%.
Same read-out and setting: in the case of `CCN1CCN(C(=O)N[C@@H](C(=O)N[C@@H]2C(=O)N3[C@@H]2SC(C)(C)[C@@H]3C(=O)O)c2ccccc2)C(=O)C1=O` it was 120%; in that of `O=C(O)Cc1ccc2c(c1)C(=O)c1ccccc1CO2` [isoxepac], 103%; in that of `C/C(=C(/CCOC(=O)c1ccccc1)SC(=O)c1ccccc1)N(C=O)Cc1cnc(C)nc1N` [bentiamine], 84.1%.
Still for that read-out and setting: the result for `O=C(O)Cc1ccccc1Oc1ccc(Cl)cc1Cl` [fenclofenac] reads 52.1%; that for `C=CC[C@@H]1/C=C(\C)C[C@H](C)C[C@H](OC)[C@H]2O[C@@](O)(C(=O)C(=O)N3CCCC[C@H]3C(=O)O[C@H](/C(C)=C/[C@@H]3CC[C@@H](O)[C@H](OC)C3)[C@H](C)[C@@H](O)CC1=O)[C@H](C)C[C@@H]2OC` [Tacrolimus], 90%; that for `O=S(=O)(O)Oc1ccc(C(c2ccc(OS(=O)(=O)O)cc2)c2ccccn2)cc1` [picosulfate], 71.6%.
Same read-out and setting: in the case of `COCC(=O)Nc1cc(Sc2ccccc2)ccc1N=C(NC(=O)OC)NC(=O)OC` [febantel] it was 111%; in that of `CN1CCN(CCCN2c3ccccc3Sc3ccc(Cl)cc32)CC1`, 111%.
Consider `CN1[C@@H]2CC[C@H]1C[C@@H](OC(c1ccccc1)c1ccccc1)C2` [Cogentin], for which the mCherry is 101% and 113%.
On the same count and under the same terms, the result for `CC1=CC(=O)c2ccccc2C1=O` reads 88.4%.
In turn, `COC(=O)C1=C(C)NC(C)=C(C(=O)OC(C)(C)CN(C)CCC(c2ccccc2)c2ccccc2)C1c1cccc([N+](=O)[O-])c1` (stereo not given) [lercanidipine] came in with a mCherry of 112%.
Still for that read-out and setting: in the case of `O=C(c1ccccc1)c1ccc2n1CCC2C(=O)O` (stereo not given) it was 118%; in that of `CN1C(C(=O)Nc2ccccn2)=C(O)c2ccccc2S1(=O)=O`, 99.3%.
Still for that read-out and setting: in the case of `CC[C@@]1(O)C(=O)OCc2c1cc1n(c2=O)Cc2cc3cc(O)ccc3nc2-1` [10-Hydroxycamptothecin] it was 43.6%; in that of `Cc1cc(O)cc(C)c1Cl`, 109%; in that of `COC(=O)Nc1nc2cc(C(=O)c3ccccc3)ccc2[nH]1`, 30.5%.
`COc1ccc(C(=O)Nc2c(Cl)cncc2Cl)cc1OC1CCCC1` [piclamilast] had a mCherry of 64.1%.
In turn, `CCO[C@@H](Cc1ccc(OCCc2ccc(OS(C)(=O)=O)cc2)cc1)C(=O)O` [tesaglitazar] came in with a mCherry of 86.1%.
Take `CC1(C)SCCN(S(=O)(=O)c2ccc(Oc3ccncc3)cc2)[C@H]1C(=O)NO` [prinomastat]: the mCherry is 101%.
In the case of `Cn1cnc([N+](=O)[O-])c1Sc1ncnc2[nH]cnc12` [Azathioprine], the mCherry is 111% and 88.4%.
For the compound `CC(C(=O)O)c1ccc2c(c1)Cc1cccnc1O2` (stereo not given) [pranoprofen], the mCherry was 128% and 135%.
Same read-out and setting: the result for `NCCCC(O)(P(=O)(O)O)P(=O)(O)O` [alendronic acid] reads 48.6%.
The same measure, in the same setting: the result for `COc1ccc(OC)c(C(O)CNC(=O)CN)c1` (stereo not given) [midodrine] reads 97.1%; that for `C[C@]12CC[C@@H]3c4ccc(O)cc4C[C@@H](CCCCCCCCC[S+]([O-])CCCC(F)(F)C(F)(F)F)[C@H]3[C@@H]1CC[C@@H]2O` (stereo not given in full) [Faslodex], 97.6%.
`CC1CCCC(C)N1CCCCNC(=O)C(Oc1ccccc1)c1ccccc1` (stereo not given) [oxiramide] returned a mCherry of 76.1%.
Same read-out and setting: the result for `O=C(O)c1cc(=O)[nH]c(=O)[nH]1` [orotic acid] reads 108%.
On to `Cc1oc(=O)oc1CN1CCN(c2cc3c(cc2F)c(=O)c(C(=O)O)c2n3C(C)S2)CC1` (stereo not given), for which the mCherry is 107%.
The compound `NC(=O)c1[nH]nc([C@@H]2O[C@H](CO)[C@@H](O)[C@H]2O)c1O` [pirazofurin] showed a mCherry of 56.6%.
The same measure, in the same setting: the result for `c1ccc([C@H]2CN3CCSC3=N2)cc1` [levamisole] reads 96.5%; that for `c1cc(CNCc2ccncc2)ccn1` [gapicomine], 90%.

The next test has the same test system. As to the kind of experiment: percent effect, decrease of GFP/mCherry ratio (-1 PRF reporter) relative to controls; higher = stronger frameshift inhibition. Particulars: 10 µM; 24 h; HEK293T.
Turning to `CC(Cc1ccccc1)N(C)C(=O)Cn1nc(-c2ccccc2)ccc1=O` (stereo not given) [isamfazone], the percent effect was -3.43%.
Same read-out and setting: in the case of `C#CCN(C)CCCOc1ccc(Cl)cc1Cl` it was 0.703%.
Take `Cc1cc2c(cc1CC(=O)c1sccc1S(=O)(=O)Nc1onc(C)c1Cl)OCO2` [Thelin]: the percent effect was -2.02%.
With `CCN(CC)CC(=O)OCC(=O)[C@@]1(O)CC[C@H]2[C@@H]3CCC4=CC(=O)C=C[C@]4(C)[C@H]3[C@@H](O)C[C@@]21C` [prednisolamate], the percent effect was -0.792%.
The same measure, in the same setting: the result for `CCOC(=O)O[C@]1(C(=O)COC(=O)CC)CC[C@H]2[C@@H]3CCC4=CC(=O)C=C[C@]4(C)[C@H]3[C@@H](O)C[C@@]21C` reads -4.94%; that for `CN1CCCC(n2nc(Cc3ccc(Cl)cc3)c3ccccc3c2=O)CC1` (stereo not given), -4.26%.
As for `CC(=O)Oc1ccccc1C(=O)O` [Acetylsalicylic Acid], the percent effect is -1.12%.
Same read-out and setting: the result for `Cc1cccc(C)c1OCC(C)N` (stereo not given) reads 1.02%; that for `CC1(C)OC[C@@H]2O[C@@]3(C(=O)O)OC(C)(C)O[C@H]3[C@@H]2O1` [diprogulic acid], -1.25%; that for `Cc1onc(-c2ccccc2Cl)c1C(=O)N[C@@H]1C(=O)N2[C@@H]1SC(C)(C)[C@@H]2C(=O)O`, -5.23%.
Still for that read-out and setting: in the case of `CCN1CCN(C(=O)N[C@@H](C(=O)N[C@@H]2C(=O)N3[C@@H]2SC(C)(C)[C@@H]3C(=O)O)c2ccccc2)C(=O)C1=O` it was -8.73%; in that of `O=C(O)Cc1ccc2c(c1)C(=O)c1ccccc1CO2` [isoxepac], -1.79%; in that of `C/C(=C(/CCOC(=O)c1ccccc1)SC(=O)c1ccccc1)N(C=O)Cc1cnc(C)nc1N` [bentiamine], -1.94%.
Same read-out and setting: in the case of `O=C(O)Cc1ccccc1Oc1ccc(Cl)cc1Cl` [fenclofenac] it was -1.44%; in that of `C=CC[C@@H]1/C=C(\C)C[C@H](C)C[C@H](OC)[C@H]2O[C@@](O)(C(=O)C(=O)N3CCCC[C@H]3C(=O)O[C@H](/C(C)=C/[C@@H]3CC[C@@H](O)[C@H](OC)C3)[C@H](C)[C@@H](O)CC1=O)[C@H](C)C[C@@H]2OC` [Tacrolimus], -0.444%.
As for `O=S(=O)(O)Oc1ccc(C(c2ccc(OS(=O)(=O)O)cc2)c2ccccn2)cc1` [picosulfate], the percent effect is -11.4%.
On the same count and under the same terms, the result for `COCC(=O)Nc1cc(Sc2ccccc2)ccc1N=C(NC(=O)OC)NC(=O)OC` [febantel] reads -4.24%; that for `CN1CCN(CCCN2c3ccccc3Sc3ccc(Cl)cc32)CC1`, 1.29%; that for `CN1[C@@H]2CC[C@H]1C[C@@H](OC(c1ccccc1)c1ccccc1)C2` [Cogentin], -8.05% and -3.24%.
Same read-out and setting: in the case of `CC1=CC(=O)c2ccccc2C1=O` it was -0.442%.
On the same count and under the same terms, in the case of `COC(=O)C1=C(C)NC(C)=C(C(=O)OC(C)(C)CN(C)CCC(c2ccccc2)c2ccccc2)C1c1cccc([N+](=O)[O-])c1` (stereo not given) [lercanidipine] it was -2.53%.
With `O=C(c1ccccc1)c1ccc2n1CCC2C(=O)O` (stereo not given), the percent effect turned out to be 2.52%.
Still for that read-out and setting: the result for `CN1C(C(=O)Nc2ccccn2)=C(O)c2ccccc2S1(=O)=O` reads -2.28%.
In the case of `CC[C@@]1(O)C(=O)OCc2c1cc1n(c2=O)Cc2cc3cc(O)ccc3nc2-1` [10-Hydroxycamptothecin], the percent effect is 4.94%.
Same read-out and setting: the result for `Cc1cc(O)cc(C)c1Cl` reads 2.19%.
On the same count and under the same terms, the result for `COC(=O)Nc1nc2cc(C(=O)c3ccccc3)ccc2[nH]1` reads -6.1%.
`COc1ccc(C(=O)Nc2c(Cl)cncc2Cl)cc1OC1CCCC1` [piclamilast]: the percent effect is -6.74%.
The same measure, in the same setting: in the case of `CCO[C@@H](Cc1ccc(OCCc2ccc(OS(C)(=O)=O)cc2)cc1)C(=O)O` [tesaglitazar] it was -11.6%; in that of `CC1(C)SCCN(S(=O)(=O)c2ccc(Oc3ccncc3)cc2)[C@H]1C(=O)NO` [prinomastat], -6.86%.
The same measure, in the same setting: in the case of `Cn1cnc([N+](=O)[O-])c1Sc1ncnc2[nH]cnc12` [Azathioprine] it was -0.343% and -0.221%; in that of `CC(C(=O)O)c1ccc2c(c1)Cc1cccnc1O2` (stereo not given) [pranoprofen], 4.53% and 4.09%.
Take `NCCCC(O)(P(=O)(O)O)P(=O)(O)O` [alendronic acid]: the percent effect is -8.78%.
The same measure, in the same setting: the result for `COc1ccc(OC)c(C(O)CNC(=O)CN)c1` (stereo not given) [midodrine] reads 0.26%; that for `C[C@]12CC[C@@H]3c4ccc(O)cc4C[C@@H](CCCCCCCCC[S+]([O-])CCCC(F)(F)C(F)(F)F)[C@H]3[C@@H]1CC[C@@H]2O` (stereo not given in full) [Faslodex], -7.99%.
Same read-out and setting: the result for `CC1CCCC(C)N1CCCCNC(=O)C(Oc1ccccc1)c1ccccc1` (stereo not given) [oxiramide] reads -5.37%; that for `O=C(O)c1cc(=O)[nH]c(=O)[nH]1` [orotic acid], -2.86%.
Still for that read-out and setting: the result for `Cc1oc(=O)oc1CN1CCN(c2cc3c(cc2F)c(=O)c(C(=O)O)c2n3C(C)S2)CC1` (stereo not given) reads 0.459%; that for `NC(=O)c1[nH]nc([C@@H]2O[C@H](CO)[C@@H](O)[C@H]2O)c1O` [pirazofurin], 7.65%.
Regarding `c1ccc([C@H]2CN3CCSC3=N2)cc1` [levamisole], the percent effect is -3.15%.
Turning to `c1cc(CNCc2ccncc2)ccn1` [gapicomine], the percent effect is -2.44%.

Source of the values: the supplement of paper PMC8256030.
